Drawing on paper PMC7819943, “Rice protein-binding microarrays: a tool to detect cis-acting elements near promoter regions in rice”, this text covers binding signal for 42 sequences.

The other results are listed elsewhere or left out.

The experiment addresses T1, OsSMF1 (Oryza sativa, UniProt Q6ZLB0 1-436).
T1 sequence: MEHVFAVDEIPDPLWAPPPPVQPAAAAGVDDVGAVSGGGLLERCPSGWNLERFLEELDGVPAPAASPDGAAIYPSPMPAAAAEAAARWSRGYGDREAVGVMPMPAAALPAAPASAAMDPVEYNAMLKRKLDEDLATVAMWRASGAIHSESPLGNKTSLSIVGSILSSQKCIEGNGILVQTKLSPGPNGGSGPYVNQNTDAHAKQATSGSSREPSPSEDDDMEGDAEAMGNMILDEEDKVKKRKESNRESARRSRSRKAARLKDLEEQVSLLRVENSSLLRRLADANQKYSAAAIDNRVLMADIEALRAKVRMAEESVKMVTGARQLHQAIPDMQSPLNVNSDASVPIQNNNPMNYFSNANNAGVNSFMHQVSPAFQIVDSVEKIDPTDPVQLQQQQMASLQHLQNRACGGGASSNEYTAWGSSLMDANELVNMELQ
The experiment is described as follows: protein-binding microarray (RPBM); PBS, 2% BSA, 51.3 ng/ul salmon testes DNA, 50 uM zinc acetate, 200 nM TF, 25 C, 1 h; high values mean tight binding. The settings on record: protein: recombinant; tags: N-terminal polyhistidine and DsRed monomer fusion (pET32a); chain copies: 2; label: CyDye5-dUTP incorporated in the synthesized complementary strand; 3' TTTTT single-stranded linker to array surface; dsDNA, one strand shown. The essentials:
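Transcription factors, each fused N-terminally to a polyhistidine tag and DsRed, were expressed in E. coli BL21-CodonPlus and purified on Ni–NTA. A custom Agilent array was made double-stranded by primer extension with Cy5-dUTP and blocked with 2% BSA. It was incubated with 200 nM protein in PBS, 2% BSA, salmon testes DNA and 50 µM zinc acetate at 25 °C for 1 h, then washed. The binding signal is per-feature fluorescence intensity (arbitrary units) read on an Axon 4000B scanner.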
As for “CATATAAATTGACAACTTCTACTTAAACCTGACATGTGGGCGGAGTCACCTAGTGCAG”, the binding signal is 3190 fluorescence intensity (a.u.).

“AGAAAAGCAGCAGACTACGAATCTGTAGCCAGCTGCAGCACGGAGTCACCTAGTGCAG”: the binding signal is 22600 fluorescence intensity (a.u.).

Consider “CGGTACCGCCGCCGACGCCGCACTTCCCCTCGCGCCGCGCCGGAGTCACCTAGTGCAG”, for which the binding signal is 3480 fluorescence intensity (a.u.).

As for “CCCTTCTCCACCATCAACTTCGCCACTCGTCGGAGCGCCGCGGAGTCACCTAGTGCAG”, the binding signal was 3630 fluorescence intensity (a.u.).

For the sequence “GCTCTGCTGTACCCCGCCACGCCGCTCCCTCGCAGTCACCCGGAGTCACCTAGTGCAG”, the binding signal is 3260 fluorescence intensity (a.u.).

“TGATTGGTTCTGACACGACATAGATGCATACTGATATGCTCGGAGTCACCTAGTGCAG”: the binding signal was 13800 fluorescence intensity (a.u.).

On to “CCGTATTATTTAATTCATTCAAAGTACACGTACGAGAAAACGGAGTCACCTAGTGCAG”, for which the binding signal was 3710 fluorescence intensity (a.u.).

In the case of “GCTGGCTACTACTACTACTTGCACTCCACGCCCTCATCCCCGGAGTCACCTAGTGCAG”, the binding signal was 3150 fluorescence intensity (a.u.).

Take “CTCAACAGTATGTTCTTAATTCTGATAACGTGGCTAGTGTCGGAGTCACCTAGTGCAG”: the binding signal was 4780 fluorescence intensity (a.u.).

Regarding “TCTCTGCAATTGTCGATCTTTATCACGCGCTCCACCCTATCGGAGTCACCTAGTGCAG”, the binding signal was 4260 fluorescence intensity (a.u.).

In the case of “CCGAACCGGGACTAGTTTGACTCAACACGTGGGGTCAAACCGGAGTCACCTAGTGCAG”, the binding signal is 4600 fluorescence intensity (a.u.).

As for “GATCGTACATGTTCACATAAACACCCACGACACTACCCTACGGAGTCACCTAGTGCAG”, the binding signal was 18400 fluorescence intensity (a.u.).

As to “CCTTGGCCTCGAACTCTTCAGCCGCTGACGGCATCCTTACCGGAGTCACCTAGTGCAG”, the binding signal is 3550 fluorescence intensity (a.u.).

As to “TCATTCCGTCAAGGGCTCGCCGTCTCTCAGCACCGGCGTACGGAGTCACCTAGTGCAG”, the binding signal was 38500 fluorescence intensity (a.u.).

For “CTCTAGAAATCACTGTTGCCAAATCAGCTGATCGGTCTGCCGGAGTCACCTAGTGCAG”, the binding signal was 4040 fluorescence intensity (a.u.).

In the case of “CTTGGCAAAGATAATCCTATGTCAGCAAAGCTGCAAGTTCCGGAGTCACCTAGTGCAG”, the binding signal was 6070 fluorescence intensity (a.u.).

Consider “AGAACATATATACTGCATCATCGTTTGCTCTTTAACTTATCGGAGTCACCTAGTGCAG”, for which the binding signal was 3220 fluorescence intensity (a.u.).

For “GGAGGAGACGTCATGGTAGATGAGTGTTGCATATCCCGTTCGGAGTCACCTAGTGCAG”, the binding signal was 3920 fluorescence intensity (a.u.).

As to “ACCAGGCTGACCGGCCGTCTCGTGGCAAATTGGGCCGAGTCGGAGTCACCTAGTGCAG”, the binding signal is 3400 fluorescence intensity (a.u.).

As for “AGCTCGACGGCGCCGCCCGAACCTTGCCAGGCGTGGATCTCGGAGTCACCTAGTGCAG”, the binding signal is 3250 fluorescence intensity (a.u.).

As to “ATACAATACCCGATGTGACACGCCAAAACTTCATACTCTTCGGAGTCACCTAGTGCAG”, the binding signal was 26200 fluorescence intensity (a.u.).

“TCCATGAGTCAAGATGAAGCCAAGAAAATCATCAGCTGATCGGAGTCACCTAGTGCAG”: the binding signal was 3240 fluorescence intensity (a.u.).

As for “ATCGACCCTATTTGCGAGATTTGATAGTGTGGCATCCTTTCGGAGTCACCTAGTGCAG”, the binding signal is 3320 fluorescence intensity (a.u.).

As for “GGATTACTACGGCGGCCATGGCGCCGACGGTTCAGCGTCCCGGAGTCACCTAGTGCAG”, the binding signal is 22000 fluorescence intensity (a.u.).

Consider “CACCTCCCCTTCCCATCCCAACCGGCCAACCCTCCCCACCCGGAGTCACCTAGTGCAG”, for which the binding signal is 13900 fluorescence intensity (a.u.).

For the sequence “CCCTCGTCCAGGCCCGCTGGAAGTTCGGTGAGTCAGAAGTCGGAGTCACCTAGTGCAG”, the binding signal is 6440 fluorescence intensity (a.u.).

For “CAAATTCGAACTTACGTCATCATCATCCATCCACAGACCTCGGAGTCACCTAGTGCAG”, the binding signal is 12600 fluorescence intensity (a.u.).

For the sequence “ACATTTATACTCTAAGGGTTAAAACTGGAGACGGAGGAAGCGGAGTCACCTAGTGCAG”, the binding signal was 29100 fluorescence intensity (a.u.).

Take “CAGCTGGGAGCTCGGAGTTCTCCAGTCAGGTGGAGACACGCGGAGTCACCTAGTGCAG”: the binding signal was 3370 fluorescence intensity (a.u.).

“GTGTGAAAGGGCAATTTCAAGGGGTGAGGGGTTCGCGTGGCGGAGTCACCTAGTGCAG”: the binding signal is 3260 fluorescence intensity (a.u.).

Regarding “TATTTCTATATATAAAGTTTACACGTGCAAAGTTTTATTTCGGAGTCACCTAGTGCAG”, the binding signal is 4230 fluorescence intensity (a.u.).

Turning to “AAGTCCTCTTCCTCTTCATCATAATCGTCACCCACGCGCCCGGAGTCACCTAGTGCAG”, the binding signal was 3220 fluorescence intensity (a.u.).

For the sequence “AGAAGCAAGCAGACGCCACGCCACGGAAGAATCTAGAACCCGGAGTCACCTAGTGCAG”, the binding signal is 3450 fluorescence intensity (a.u.).

Take “GATGGCATCCCCGAGTGATTGAAAGAGTTTCCTCTCTCTTCGGAGTCACCTAGTGCAG”: the binding signal is 37500 fluorescence intensity (a.u.).

For the sequence “ACGCCCACGACATCGAAGCAAAGCCCCGCGGTTTACGTGCCGGAGTCACCTAGTGCAG”, the binding signal is 3410 fluorescence intensity (a.u.).

In the case of “AAAGCCAGAACACAACTAAATCACATCATGAAACATTTTGCGGAGTCACCTAGTGCAG”, the binding signal is 30400 fluorescence intensity (a.u.).

For “GCCATGGGCCCCACCTGGCGCGTGTCCGCTATAAATACCCCGGAGTCACCTAGTGCAG”, the binding signal is 3390 fluorescence intensity (a.u.).

Consider “TCCTTCACCCACCGATCGATTCGATCTGACCGCGCCGCCGCGGAGTCACCTAGTGCAG”, for which the binding signal was 3360 fluorescence intensity (a.u.).

Regarding “TCATGTTGTGACAGCATCTTTGAAAACAAGAAATTGCTCACGGAGTCACCTAGTGCAG”, the binding signal was 33700 fluorescence intensity (a.u.).

Consider “TGTTGATGGCGTCATTATTTACATGGTATGGTGCATTTGGCGGAGTCACCTAGTGCAG”, for which the binding signal was 14600 fluorescence intensity (a.u.).

As to “GTAAGATGACTCTGTAGTTGGCTATGTCCACACCAGGCACCGGAGTCACCTAGTGCAG”, the binding signal is 3620 fluorescence intensity (a.u.).

In the case of “TACTTAACGGTTTCTGTCTTCTTTTGGTAGGCCCTCGCTGCGGAGTCACCTAGTGCAG”, the binding signal is 3520 fluorescence intensity (a.u.).
